Test results reported in ChEMBL document CHEMBL5724796, “Tm Shift (DSF) assay results for EUbOPEN Chemogenomics Library” (2024).
Values joined by “and” are separate entries in the source; they are usually repeats but may differ in a detail not shown here. Identical values can stand only once.

Sequences of proteins named here, by UniProt entry; tags and fusion partners are left off.
UniProt P21802, whole entry, looked up: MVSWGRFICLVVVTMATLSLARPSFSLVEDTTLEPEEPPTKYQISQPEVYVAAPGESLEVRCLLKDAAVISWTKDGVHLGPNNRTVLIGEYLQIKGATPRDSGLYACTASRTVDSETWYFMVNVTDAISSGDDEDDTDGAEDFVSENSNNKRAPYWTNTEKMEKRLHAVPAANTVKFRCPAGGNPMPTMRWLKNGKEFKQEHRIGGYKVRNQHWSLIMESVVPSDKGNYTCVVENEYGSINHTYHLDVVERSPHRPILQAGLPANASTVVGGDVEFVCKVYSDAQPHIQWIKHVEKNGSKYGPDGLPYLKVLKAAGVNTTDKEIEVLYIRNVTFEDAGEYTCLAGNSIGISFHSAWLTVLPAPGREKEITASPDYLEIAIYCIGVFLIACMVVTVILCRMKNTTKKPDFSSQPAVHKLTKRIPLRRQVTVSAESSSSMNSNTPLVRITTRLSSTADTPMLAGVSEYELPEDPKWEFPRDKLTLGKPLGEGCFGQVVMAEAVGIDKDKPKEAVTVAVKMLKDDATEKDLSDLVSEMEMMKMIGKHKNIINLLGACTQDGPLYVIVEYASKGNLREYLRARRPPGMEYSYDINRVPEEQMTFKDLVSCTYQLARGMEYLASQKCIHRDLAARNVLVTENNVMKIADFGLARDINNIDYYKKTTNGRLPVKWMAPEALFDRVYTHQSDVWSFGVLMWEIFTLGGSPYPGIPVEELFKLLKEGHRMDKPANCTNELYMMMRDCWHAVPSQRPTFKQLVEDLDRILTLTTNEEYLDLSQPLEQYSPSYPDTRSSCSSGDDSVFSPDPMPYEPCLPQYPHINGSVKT

Legend:
Peregrin (Homo sapiens) = target: T1, Peregrin (Homo sapiens) (UniProt P55201); settings: Compound concentration 20.0 uM
T1 sequence (whole entry): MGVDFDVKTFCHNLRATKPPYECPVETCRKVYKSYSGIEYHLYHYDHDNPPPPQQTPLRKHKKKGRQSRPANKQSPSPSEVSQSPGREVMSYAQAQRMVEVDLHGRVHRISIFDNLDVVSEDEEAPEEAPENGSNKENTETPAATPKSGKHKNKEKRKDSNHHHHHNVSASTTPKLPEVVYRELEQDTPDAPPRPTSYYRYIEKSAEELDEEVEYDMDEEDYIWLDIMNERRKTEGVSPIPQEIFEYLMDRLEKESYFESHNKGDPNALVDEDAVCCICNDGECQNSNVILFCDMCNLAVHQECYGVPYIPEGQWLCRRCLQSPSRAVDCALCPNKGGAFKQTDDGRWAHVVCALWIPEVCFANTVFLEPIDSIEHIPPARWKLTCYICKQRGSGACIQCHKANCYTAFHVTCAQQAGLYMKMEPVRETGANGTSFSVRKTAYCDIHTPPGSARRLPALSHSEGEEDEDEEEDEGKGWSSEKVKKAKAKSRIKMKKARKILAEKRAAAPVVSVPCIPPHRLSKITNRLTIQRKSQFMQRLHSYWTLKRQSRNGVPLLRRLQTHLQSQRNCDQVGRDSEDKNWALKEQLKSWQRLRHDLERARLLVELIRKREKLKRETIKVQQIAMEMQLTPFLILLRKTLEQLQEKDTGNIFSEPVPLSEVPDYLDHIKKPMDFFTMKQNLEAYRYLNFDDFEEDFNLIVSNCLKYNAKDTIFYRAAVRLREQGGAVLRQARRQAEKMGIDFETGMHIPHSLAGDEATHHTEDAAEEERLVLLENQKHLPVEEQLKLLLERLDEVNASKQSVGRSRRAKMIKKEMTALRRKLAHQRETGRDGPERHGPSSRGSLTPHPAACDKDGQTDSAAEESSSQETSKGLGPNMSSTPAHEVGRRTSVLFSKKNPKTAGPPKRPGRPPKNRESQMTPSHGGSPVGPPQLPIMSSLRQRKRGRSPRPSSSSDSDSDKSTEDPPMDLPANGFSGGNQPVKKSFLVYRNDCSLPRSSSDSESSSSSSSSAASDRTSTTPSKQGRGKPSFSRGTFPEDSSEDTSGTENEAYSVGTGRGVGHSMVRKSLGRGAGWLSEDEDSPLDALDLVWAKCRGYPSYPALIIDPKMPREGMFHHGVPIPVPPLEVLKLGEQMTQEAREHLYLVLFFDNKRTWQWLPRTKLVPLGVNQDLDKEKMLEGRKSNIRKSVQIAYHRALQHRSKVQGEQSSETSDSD

[1] = target: Fibroblast growth factor receptor 2 (Homo sapiens) (UniProt P21802); settings: Compound concentration 20.0 uM

Row | ΔTm (Peregrin (Homo sapiens)) | ΔTm [1] | SMILES
1 | -0.5 °C | 0.05 °C | COC[C@@H](NC(=O)N1CC(=O)Nc2cc(OC)cnc21)c1ccc(OC(F)(F)F)c(F)c1
2 | -0.33 °C | 0.4 °C | CNC(=O)c1ccc(-c2cc3cccc(-c4nn(C5CCOCC5)c5c4CN(C(C)=O)CC5)c3cn2)cn1
3 | -1.08 °C and -1.24 °C | 0.03 °C and 0.55 °C | Cc1ccc(C(=O)NCCCCCC(=O)Nc2ccccc2N)cc1
